Laboratory results from patent US20180044401A1.
No constants are given. Whether binding was seen depends on the method and setting. Some results given as binding are weak or reduced against the parent protein; the word gives no strength.

Target: IgG-Fc derived from anti-RSV monoclonal antibody (Palivizumab) (human) [IgG part: P01857]
Experiment: SPR Biacore 3000

B1: immunoglobulin G-binding peptide having the amino acid sequence of SEQ ID NO: 2 (designed binder)
chain: GPLGSTTYKLILNGKTLTGYTTAIAADAATAEIVLKQFANDNGIDGEWTYDDATKTFTVTE
binding: binds
